Results from the supplement of paper PMC12889115.
This is one part of the list. Values are raw readings; no control value is given beside them.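 First-pass screen: polymyxin B was added at a level that permeabilizes the Salmonella outer membrane while sparing the inner membrane. DMSO wells, with and without polymyxin B, defined maximum growth. Because plates differed from one another, each plate's data were ranked separately and the compounds with the lowest OD600 were carried forward as hits.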

System: Salmonella enterica serovar Typhimurium SL1344
Test: bacterial growth OD600 after 18 h with compound and polymyxin B; higher = more bacterial growth (less inhibition)
Conditions: 50 µM, Mueller-Hinton broth

Row | Compound | bacterial growth OD600 (polymyxin B 1 µg/mL) | bacterial growth OD600 (polymyxin B 0.75 µg/mL)
1 | CCOC(=O)C1(CCCc2ccccc2)CCN(C(=O)c2ccc(OC)o2)CC1 | 0.001 | 
2 | O=C(NCc1cc(F)cc(F)c1)C1CCCN(C2CCN(C(=O)C3CC3)CC2)C1 (centres undefined) |  | 0.785
3 | Cc1cccc(CN2CCC(n3nccc3NC(=O)C3CCCC3)CC2)n1 | 1.06 | 
4 | O=C(Cn1cnnn1)N1CCc2onc(C(c3ccccc3)c3ccccc3)c2C1 |  | 0.165
5 | COc1cccc(-c2n[nH]c3c2CN(C(=O)c2cc(C)n(C)n2)CC3)c1 |  | 0.739
6 | CCOC(=O)C1CCCCN1C(=O)c1ccc2nc(Cc3ccc(OC)cc3)oc2c1 (centres undefined) | 0.758 | 
7 | CCOC(=O)C1(CCCc2ccccc2)CCCN(C(=O)c2ccnn2C)C1 (centres undefined) | 0.858 | 
8 | CC(C)CC(=O)Nc1ccnn1C1CCN(C(=O)Cc2n[nH]c3ccccc23)CC1 |  | 0.855
9 | O=C(Nc1ccnn1C1CCN(C(=O)Cc2c(F)ccc(F)c2F)CC1)C1CC1 | 0.952 | 
10 | O=C(CN1Cc2ccccc2OC(c2ccccc2F)C1)NCCCn1nnc2ccccc21 (centres undefined) |  | 0.334
11 | CN(Cc1ccccc1)c1ncccc1CNC(=O)c1cn2cccnc2n1 |  | 0.702
12 | COc1ccc2ccccc2c1CNC1CCN(c2ccc(C(=O)N3CCOCC3)cc2)CC1 |  | 0.804
13 | COc1ccc(C(=O)N(C)CC2CCN(CCc3ccc(Cl)cc3)CC2)c(OC)n1 | 1.04 | 
14 | Cc1ccc(CN2CCC(CN(C)Cc3c[nH]nc3-c3cccc(F)c3)CC2)o1 | 1.26 | 
15 | O=C(NCC1CCCN(S(=O)(=O)c2cccnc2)C1)c1ccco1 (centres undefined) | 0.993 | 
16 | COc1cccc([C@@H]2C[C@H]3CN(C4CCCC4)C(=O)[C@]34CCCN24)c1 |  | 0.981
17 | COc1ccc(OC)c(CC(=O)N2CCOc3ccc(CN(C)CCc4ccccn4)cc3C2)c1 |  | 0.857
18 | CCC1CN(CC(=O)NCC(c2ccccn2)N2CCOCC2)Cc2cc(OC)ccc2O1 (centres undefined) |  | 0.763
19 | CCC(=O)N[C@@H]1c2ccccc2C2(CCN(Cc3ccc(CO)o3)CC2)[C@H]1OCCOC |  | 0.864

Already shown: an excerpt of the list.
Row | Compound | bacterial growth OD600 (polymyxin B 1 µg/mL) | bacterial growth OD600 (polymyxin B 0.75 µg/mL)
15 | O=C(NCC1CCCN(S(=O)(=O)c2cccnc2)C1)c1ccco1 (centres undefined) | 0.993 | 
16 | COc1cccc([C@@H]2C[C@H]3CN(C4CCCC4)C(=O)[C@]34CCCN24)c1 |  | 0.981
